# Assay results from the supplement of paper PMC10849652.
# Amino acid sequences for entries named in this document (tags omitted). A change or cut given only in a name is not applied to a line headed by its entry.
# UniProt Q8NI08: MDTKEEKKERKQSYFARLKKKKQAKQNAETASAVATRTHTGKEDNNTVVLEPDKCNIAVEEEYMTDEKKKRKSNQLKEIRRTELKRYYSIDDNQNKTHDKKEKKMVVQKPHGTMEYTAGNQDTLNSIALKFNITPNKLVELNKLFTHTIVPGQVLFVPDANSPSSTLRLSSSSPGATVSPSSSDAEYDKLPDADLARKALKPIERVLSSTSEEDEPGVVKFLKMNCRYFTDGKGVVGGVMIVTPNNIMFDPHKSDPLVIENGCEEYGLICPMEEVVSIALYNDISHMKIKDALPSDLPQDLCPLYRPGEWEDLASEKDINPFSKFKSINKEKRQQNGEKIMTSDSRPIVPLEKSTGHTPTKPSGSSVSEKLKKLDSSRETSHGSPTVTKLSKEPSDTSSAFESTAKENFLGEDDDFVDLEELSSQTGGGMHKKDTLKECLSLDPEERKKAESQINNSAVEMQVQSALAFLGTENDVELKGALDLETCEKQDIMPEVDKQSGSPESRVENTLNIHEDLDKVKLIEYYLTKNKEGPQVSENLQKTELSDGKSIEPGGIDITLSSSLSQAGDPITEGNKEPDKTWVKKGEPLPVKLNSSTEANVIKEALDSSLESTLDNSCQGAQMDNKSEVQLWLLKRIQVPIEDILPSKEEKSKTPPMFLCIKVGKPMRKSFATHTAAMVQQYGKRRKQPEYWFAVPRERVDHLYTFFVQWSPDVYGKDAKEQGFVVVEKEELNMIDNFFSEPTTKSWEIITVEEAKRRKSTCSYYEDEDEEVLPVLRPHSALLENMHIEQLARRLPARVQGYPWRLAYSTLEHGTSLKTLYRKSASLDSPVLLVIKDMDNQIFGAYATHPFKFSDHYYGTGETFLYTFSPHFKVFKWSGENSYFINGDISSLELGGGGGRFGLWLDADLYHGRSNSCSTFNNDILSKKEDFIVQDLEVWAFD
# UniProt O75376, whole entry, looked up: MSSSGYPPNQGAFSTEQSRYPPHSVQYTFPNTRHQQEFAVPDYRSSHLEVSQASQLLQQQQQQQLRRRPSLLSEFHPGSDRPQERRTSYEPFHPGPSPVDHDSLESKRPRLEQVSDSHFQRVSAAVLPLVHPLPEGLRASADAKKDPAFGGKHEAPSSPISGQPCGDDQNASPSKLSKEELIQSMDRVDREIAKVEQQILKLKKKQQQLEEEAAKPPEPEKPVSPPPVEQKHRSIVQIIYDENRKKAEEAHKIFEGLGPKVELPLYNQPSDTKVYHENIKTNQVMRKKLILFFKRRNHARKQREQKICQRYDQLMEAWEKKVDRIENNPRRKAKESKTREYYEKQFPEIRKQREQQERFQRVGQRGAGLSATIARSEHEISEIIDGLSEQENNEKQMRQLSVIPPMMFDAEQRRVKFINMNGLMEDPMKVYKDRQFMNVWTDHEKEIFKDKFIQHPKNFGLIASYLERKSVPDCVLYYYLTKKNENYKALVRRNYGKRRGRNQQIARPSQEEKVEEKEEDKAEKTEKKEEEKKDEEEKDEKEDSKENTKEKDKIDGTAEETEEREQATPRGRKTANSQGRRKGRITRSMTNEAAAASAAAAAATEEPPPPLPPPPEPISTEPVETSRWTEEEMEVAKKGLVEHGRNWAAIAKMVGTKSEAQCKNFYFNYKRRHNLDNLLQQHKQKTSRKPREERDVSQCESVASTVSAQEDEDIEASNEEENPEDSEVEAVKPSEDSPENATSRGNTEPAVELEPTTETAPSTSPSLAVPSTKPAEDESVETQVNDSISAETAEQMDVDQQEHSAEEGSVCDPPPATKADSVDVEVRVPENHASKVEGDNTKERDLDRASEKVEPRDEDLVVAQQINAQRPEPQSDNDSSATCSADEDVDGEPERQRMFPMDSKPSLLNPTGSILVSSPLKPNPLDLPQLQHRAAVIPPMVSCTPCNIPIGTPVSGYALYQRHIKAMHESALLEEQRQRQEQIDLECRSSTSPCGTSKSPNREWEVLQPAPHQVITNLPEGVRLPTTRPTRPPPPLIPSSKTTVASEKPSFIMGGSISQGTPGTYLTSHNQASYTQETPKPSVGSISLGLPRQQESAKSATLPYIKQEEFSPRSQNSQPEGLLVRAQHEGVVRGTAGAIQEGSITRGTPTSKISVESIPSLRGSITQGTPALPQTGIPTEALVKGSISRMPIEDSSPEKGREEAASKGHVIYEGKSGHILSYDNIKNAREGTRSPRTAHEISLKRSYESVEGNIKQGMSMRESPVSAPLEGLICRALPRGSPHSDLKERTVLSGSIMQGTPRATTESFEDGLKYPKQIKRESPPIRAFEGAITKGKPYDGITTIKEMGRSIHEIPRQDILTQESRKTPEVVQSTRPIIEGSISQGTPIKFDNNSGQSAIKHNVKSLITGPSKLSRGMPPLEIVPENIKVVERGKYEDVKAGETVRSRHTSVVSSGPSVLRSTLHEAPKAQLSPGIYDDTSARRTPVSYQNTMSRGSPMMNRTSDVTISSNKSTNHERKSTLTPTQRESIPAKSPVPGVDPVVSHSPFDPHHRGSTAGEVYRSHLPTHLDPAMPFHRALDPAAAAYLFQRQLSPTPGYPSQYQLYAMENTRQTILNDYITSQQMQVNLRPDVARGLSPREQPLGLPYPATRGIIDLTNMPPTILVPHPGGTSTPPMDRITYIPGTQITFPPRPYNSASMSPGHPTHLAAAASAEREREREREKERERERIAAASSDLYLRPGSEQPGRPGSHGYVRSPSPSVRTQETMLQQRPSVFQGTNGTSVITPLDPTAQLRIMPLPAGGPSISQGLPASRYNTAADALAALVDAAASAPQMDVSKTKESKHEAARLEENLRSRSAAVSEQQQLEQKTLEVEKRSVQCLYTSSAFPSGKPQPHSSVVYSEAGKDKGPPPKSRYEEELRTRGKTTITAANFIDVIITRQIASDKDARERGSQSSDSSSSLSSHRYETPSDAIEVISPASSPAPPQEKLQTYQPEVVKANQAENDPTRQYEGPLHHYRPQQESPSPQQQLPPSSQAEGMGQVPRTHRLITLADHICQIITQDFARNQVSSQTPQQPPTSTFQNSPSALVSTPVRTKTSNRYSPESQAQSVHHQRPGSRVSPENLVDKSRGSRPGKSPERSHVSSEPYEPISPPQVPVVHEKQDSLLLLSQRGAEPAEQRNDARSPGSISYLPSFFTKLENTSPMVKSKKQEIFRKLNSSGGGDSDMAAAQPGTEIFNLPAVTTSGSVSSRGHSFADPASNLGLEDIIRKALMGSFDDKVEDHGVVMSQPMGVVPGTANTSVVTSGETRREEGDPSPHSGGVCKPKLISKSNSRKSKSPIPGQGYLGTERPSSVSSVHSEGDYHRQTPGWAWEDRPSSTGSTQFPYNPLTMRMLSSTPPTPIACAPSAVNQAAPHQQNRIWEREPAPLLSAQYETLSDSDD
# UniProt Q9UI09, whole entry, looked up: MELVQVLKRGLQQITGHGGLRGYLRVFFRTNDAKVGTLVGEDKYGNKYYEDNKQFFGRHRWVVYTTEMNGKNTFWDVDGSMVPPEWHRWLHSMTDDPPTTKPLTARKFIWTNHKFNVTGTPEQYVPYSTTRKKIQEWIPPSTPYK
# UniProt Q8TBE9: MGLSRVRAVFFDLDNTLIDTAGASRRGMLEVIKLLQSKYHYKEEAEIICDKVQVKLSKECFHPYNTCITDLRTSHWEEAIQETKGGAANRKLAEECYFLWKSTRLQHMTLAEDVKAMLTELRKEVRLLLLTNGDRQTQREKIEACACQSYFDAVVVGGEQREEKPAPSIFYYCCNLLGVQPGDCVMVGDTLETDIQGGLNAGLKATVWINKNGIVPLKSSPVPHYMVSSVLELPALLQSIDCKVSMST
# UniProt Q15003, whole entry, looked up: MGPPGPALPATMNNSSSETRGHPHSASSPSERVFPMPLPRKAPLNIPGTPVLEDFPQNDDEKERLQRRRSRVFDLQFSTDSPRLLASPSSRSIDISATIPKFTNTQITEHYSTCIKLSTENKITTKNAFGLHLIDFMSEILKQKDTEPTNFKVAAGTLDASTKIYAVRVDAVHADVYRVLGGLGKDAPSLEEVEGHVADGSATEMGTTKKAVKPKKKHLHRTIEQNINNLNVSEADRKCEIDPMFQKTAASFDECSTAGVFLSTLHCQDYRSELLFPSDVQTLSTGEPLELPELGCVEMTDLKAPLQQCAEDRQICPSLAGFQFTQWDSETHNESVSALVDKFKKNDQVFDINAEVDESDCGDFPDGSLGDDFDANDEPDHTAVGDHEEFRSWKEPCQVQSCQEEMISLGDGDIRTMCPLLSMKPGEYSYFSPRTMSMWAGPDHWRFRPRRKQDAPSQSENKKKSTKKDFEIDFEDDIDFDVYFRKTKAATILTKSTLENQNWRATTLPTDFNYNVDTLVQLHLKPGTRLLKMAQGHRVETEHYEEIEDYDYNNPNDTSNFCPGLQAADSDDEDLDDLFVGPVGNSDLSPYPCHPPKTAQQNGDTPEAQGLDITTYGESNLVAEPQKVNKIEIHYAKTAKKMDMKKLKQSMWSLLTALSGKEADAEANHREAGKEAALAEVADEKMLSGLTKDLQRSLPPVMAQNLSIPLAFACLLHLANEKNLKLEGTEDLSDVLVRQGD
# UniProt Q9Y2A7: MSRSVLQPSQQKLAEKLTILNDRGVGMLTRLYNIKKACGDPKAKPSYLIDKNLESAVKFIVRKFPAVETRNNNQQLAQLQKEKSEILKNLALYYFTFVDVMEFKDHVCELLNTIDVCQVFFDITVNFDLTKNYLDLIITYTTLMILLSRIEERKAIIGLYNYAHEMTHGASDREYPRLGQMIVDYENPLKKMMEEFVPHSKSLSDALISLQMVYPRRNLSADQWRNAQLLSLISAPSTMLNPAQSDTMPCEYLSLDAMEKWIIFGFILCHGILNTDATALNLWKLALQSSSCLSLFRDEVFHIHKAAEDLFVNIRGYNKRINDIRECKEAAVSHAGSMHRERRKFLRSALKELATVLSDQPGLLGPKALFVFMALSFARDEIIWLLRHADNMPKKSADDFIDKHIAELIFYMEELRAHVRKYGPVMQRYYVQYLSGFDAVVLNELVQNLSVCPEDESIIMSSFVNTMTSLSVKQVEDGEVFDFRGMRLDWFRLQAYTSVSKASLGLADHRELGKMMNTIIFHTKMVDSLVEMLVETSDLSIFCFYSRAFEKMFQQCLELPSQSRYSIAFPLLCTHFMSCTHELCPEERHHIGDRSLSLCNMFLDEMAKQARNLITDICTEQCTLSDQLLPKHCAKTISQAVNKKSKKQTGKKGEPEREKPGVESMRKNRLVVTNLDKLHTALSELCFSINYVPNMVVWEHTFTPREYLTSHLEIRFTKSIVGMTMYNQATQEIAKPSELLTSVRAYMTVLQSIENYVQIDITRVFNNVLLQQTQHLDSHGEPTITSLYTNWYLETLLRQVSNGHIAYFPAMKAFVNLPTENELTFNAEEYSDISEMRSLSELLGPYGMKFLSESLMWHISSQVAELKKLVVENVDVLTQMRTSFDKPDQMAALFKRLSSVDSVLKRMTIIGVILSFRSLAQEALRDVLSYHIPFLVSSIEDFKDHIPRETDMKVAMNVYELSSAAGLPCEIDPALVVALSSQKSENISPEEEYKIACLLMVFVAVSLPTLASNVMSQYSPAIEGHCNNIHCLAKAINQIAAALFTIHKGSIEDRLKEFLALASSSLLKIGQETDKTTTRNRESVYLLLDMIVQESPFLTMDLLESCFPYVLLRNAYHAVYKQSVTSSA
# UniProt O60934: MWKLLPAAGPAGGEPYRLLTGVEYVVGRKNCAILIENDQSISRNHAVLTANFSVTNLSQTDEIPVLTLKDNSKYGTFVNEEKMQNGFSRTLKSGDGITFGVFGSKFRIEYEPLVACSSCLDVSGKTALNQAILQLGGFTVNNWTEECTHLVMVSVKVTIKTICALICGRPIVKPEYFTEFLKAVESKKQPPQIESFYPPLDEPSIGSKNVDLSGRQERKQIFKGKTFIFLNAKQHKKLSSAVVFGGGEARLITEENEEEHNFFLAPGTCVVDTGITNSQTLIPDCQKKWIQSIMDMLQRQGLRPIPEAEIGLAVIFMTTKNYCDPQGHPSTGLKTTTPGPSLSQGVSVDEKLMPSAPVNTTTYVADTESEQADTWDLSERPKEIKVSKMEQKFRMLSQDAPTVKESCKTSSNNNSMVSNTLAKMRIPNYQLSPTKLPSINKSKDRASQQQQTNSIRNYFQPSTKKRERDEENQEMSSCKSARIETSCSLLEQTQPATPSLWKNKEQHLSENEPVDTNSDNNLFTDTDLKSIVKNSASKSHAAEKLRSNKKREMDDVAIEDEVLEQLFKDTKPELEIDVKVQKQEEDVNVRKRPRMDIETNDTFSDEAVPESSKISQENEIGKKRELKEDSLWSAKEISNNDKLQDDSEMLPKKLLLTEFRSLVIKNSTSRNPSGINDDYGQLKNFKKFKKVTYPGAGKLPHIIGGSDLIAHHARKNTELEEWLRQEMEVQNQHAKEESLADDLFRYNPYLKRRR
# UniProt B2RBV5: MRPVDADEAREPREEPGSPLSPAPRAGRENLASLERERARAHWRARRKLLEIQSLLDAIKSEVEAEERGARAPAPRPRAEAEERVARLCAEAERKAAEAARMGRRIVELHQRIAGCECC
# The list shows a part of the results.
# How the values were obtained:
# Assay in all cases: log2 fold change, soluble protein after heating vs DMSO (PISA); higher = thermal stabilisation; K562 cells, 10 uM, 30 min; active = over 0.2 and 3.5 SD of the protein, either way, in both replicates (recomputed)
# erlotinib = compound: C#Cc1cccc(Nc2ncnc3cc(OCCOC)c(OCCOC)cc23)c1 [erlotinib]
# In short: (§1)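 Soluble protein was defined as the supernatant after 21,000xg for 90 min. It came from K562 cells at 2×10^6 cells/mL given 10 μM compound for 30 min, heated in aliquots for 3 min across 48°C-58°C, pooled, and extracted in PBS with 0.5% NP-40 at 4°C, and was quantified by TMTpro 16plex LC-MS/MS with equalised channel sums. Thermal stability against control samples, from duplicates, is reported as log2 fold change.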
# [1] = compound: C/C(=N\NC(=O)C1=CC(=CC=C1)S(=O)(=O)N2CCOCC2)/C3=C(C=CC(=C3)Cl)O
# In short: as §1
# [2] = compound: C1=CC(=C(C=C1Cl)C2=NC3=NC=CN=C3C(=N2)NC4=CC=NC=C4)F
# In short: as §1
# [3] = compound: C1=CC(=CC=C1C2=NC3=C(N2)C=C(C=C3)C(=O)N)OC4=CC=C(C=C4)Cl
# In short: as §1
# [4] = compound: C1=CC2=C(C=CC(=C2)/C=C\3/C(=O)NC(=NCC4=CC=CS4)S3)N=C1
# In short: as §1
# [5] = compound: C1=CC2=NC=CN=C2C=C1/C=C/3\C(=O)NC(=O)S3
# In short: as §1
# [6] = compound: C1=CC=C(C=C1)C2=NC(=C(N2)C3=CC=NC=C3)C4=CC(=C(C=C4)Cl)O
# In short: as §1
# [7] = compound: C1=CC=C2C(=C1)C3=NNC4=CC=CC(=C43)C2=O
# In short: as §1
# [8] = compound: C1CCN(C1)C(=O)NC2=CC=CC(=C2)NC3=NC=C(C(=N3)NCCC4=CN=CN4)Br
# In short: as §1
# [9] = compound: C1CN(CCC1(CC2=CC=C(C=C2)Cl)N)C3=NC=NC4=C3C=CN4
# In short: as §1
# IRAK-1-4 Inhibitor I = compound: C1COCCN1CCN2C3=CC=CC=C3N=C2NC(=O)C4=CC(=CC=C4)[N+](=O)[O-] [IRAK-1-4 Inhibitor I]
# In short: as §1
# ibrutinib = compound: C=CC(=O)N1CCC[C@@H](n2nc(-c3ccc(Oc4ccccc4)cc3)c3c(N)ncnc32)C1 [ibrutinib]
# In short: as §1
# [10] = compound: CC(=O)c1cnc2ccc(-c3cc(Cl)c(O)c(Cl)c3)nc2c1N[C@H]1CC[C@H](CN(C)C)CC1
# In short: as §1
# ralimetinib = compound: CC(C)(C)Cn1c(N)nc2ccc(-c3[nH]c(C(C)(C)C)nc3-c3ccc(F)cc3)nc21 [ralimetinib]
# In short: as §1
# [11] = compound: CC(C)(O)CC(=O)NCCn1ccc2ncnc(Nc3ccc(Oc4cccc(C(F)(F)F)c4)c(Cl)c3)c21
# In short: as §1
# [12] = compound: CC(C)C1=C2N=C(C=C(N2N=C1)NCC3=CC=CC=C3)NCCCCCCN
# In short: as §1
# [13] = compound: CC(C)C[C@@H](C=O)NC(=O)[C@H](CC(C)C)NC(=O)[C@H](CC(C)C)NC(=O)OCc1ccccc1
# In short: as §1
# pinometostat = compound: CC(C)N(C[C@H]1O[C@@H](n2cnc3c(N)ncnc32)[C@H](O)[C@@H]1O)[C@H]1C[C@@H](CCc2nc3cc(C(C)(C)C)ccc3[nH]2)C1 [pinometostat]
# In short: as §1
# [14] = compound: CC1=C(C2=C(C=C1)C(=O)C3=CC=CC=C3N2CCCN)C
# In short: as §1
# [15] = compound: CC1=C(C(CC(=O)N1)C2=CC=C(C=C2)C(F)(F)F)C(=O)NC3=C(C=C4C(=C3)C=NN4)F
# In short: as §1
Target,log2 fold change (erlotinib),log2 fold change [1],log2 fold change [2],log2 fold change [3],log2 fold change [4],log2 fold change [5],log2 fold change [6],log2 fold change [7],log2 fold change [8],log2 fold change [9],log2 fold change (IRAK-1-4 Inhibitor I),log2 fold change (ibrutinib),log2 fold change [10],log2 fold change (ralimetinib),log2 fold change [11],log2 fold change [12],log2 fold change [13],log2 fold change (pinometostat),log2 fold change [14],log2 fold change [15]
NCOA7 (UniProt Q8NI08),inactive: -0.027,inactive: 0.063,inactive: -0.047,inactive: 0.004,inactive: 0.07,inactive: -0.048,inactive: 0.014,inactive: 0.011,inactive: 0.024,inactive: 0.045,inactive: 0.017,inactive: -0.056,inactive: -0.075,inactive: 0.052,inactive: -0.005,inactive: -0.088,inactive: 0.072,inactive: 0.019,inactive: -0.009,–
NCOR1 (UniProt O75376),inactive: -0.057,inactive: 0.021,inactive: -0.034,inactive: 0.041,inactive: 0.08,inactive: 0.026,inactive: 0.044,inactive: -0.21,inactive: -0.055,inactive: -0.051,inactive: 0.052,inactive: 0.078,active: -0.46,inactive: 0.01,inactive: 0.011,inactive: 0.055,inactive: 0.022,inactive: 0.05,inactive: 0.093,–
NDUFA12 (UniProt Q9UI09),inactive: -0.014,inactive: 0.011,inactive: 0.016,inactive: 0.147,inactive: 0.075,inactive: 0.001,inactive: 0.061,inactive: -0.007,inactive: 0.028,inactive: -0.031,inactive: 0.05,inactive: -0.078,inactive: -0.04,inactive: -0.043,inactive: -0.128,active: -0.31,inactive: 0.021,inactive: -0.06,inactive: 0.122,–
NECTIN2 isoform 2 (UniProt Q92692),inactive: -0.151,inactive: 0.006,inactive: -0.386,inactive: 0.117,inactive: 0.168,inactive: -0.345,inactive: -0.029,inactive: -0.034,–,–,inactive: -0.018,inactive: 0.047,inactive: 0.03,inactive: 0.081,inactive: 0.1,inactive: 0.059,inactive: 0.008,inactive: -0.008,–,–
NDUFA7 (UniProt O95182),inactive: -0.001,inactive: -0.033,inactive: 0.085,inactive: 0.078,inactive: -0.003,inactive: 0.021,inactive: 0,inactive: 0.036,inactive: 0.005,inactive: 0.01,inactive: 0.169,inactive: 0.024,inactive: -0.014,inactive: -0.017,inactive: -0.192,inactive: -0.063,inactive: 0.158,inactive: 0.074,inactive: 0.033,–
NANP (UniProt Q8TBE9),inactive: 0.094,inactive: 0.004,inactive: -0.01,inactive: 0.058,inactive: 0.09,inactive: 0.013,–,inactive: -0.006,inactive: -0.006,inactive: -0.099,–,inactive: -0.034,inactive: -0.015,–,inactive: -0.064,inactive: 0.04,–,–,inactive: -0.095,inactive: 0
NCAPH (UniProt Q15003),inactive: 0.201,inactive: 0.09,inactive: 0.008,inactive: -0.059,inactive: 0.024,inactive: 0.022,inactive: -0.009,inactive: 0.02,inactive: -0.004,inactive: -0.096,inactive: -0.124,inactive: -0.045,inactive: 0.097,inactive: 0.007,inactive: -0.094,inactive: -0.023,inactive: 0.02,inactive: 0.08,inactive: -0.006,–
NACC1 (UniProt Q96RE7),inactive: 0.134,inactive: 0.242,inactive: 0.065,inactive: -0.034,inactive: -0.017,inactive: 0.05,inactive: -0.02,inactive: -0.08,inactive: -0.059,inactive: -0.01,inactive: -0.026,inactive: -0.048,inactive: -0.109,inactive: -0.017,inactive: -0.058,active: -0.352,inactive: -0.014,inactive: -0.015,inactive: -0.193,–
NEDD4L (UniProt Q96PU5),inactive: 0.014,inactive: 0.078,inactive: -0.078,inactive: 0.005,inactive: 0.016,inactive: 0.035,inactive: 0.146,inactive: 0.019,inactive: -0.026,inactive: -0.076,inactive: 0.026,inactive: -0.002,inactive: -0.014,active: -0.293,inactive: -0.01,inactive: -0.107,inactive: -0.059,inactive: 0.027,inactive: -0.084,–
NDUFA6 (UniProt P56556),inactive: 0.014,inactive: 0.133,inactive: 0.11,inactive: -0.015,inactive: -0.045,inactive: 0.002,inactive: 0.104,inactive: 0.042,inactive: -0.031,inactive: -0.008,inactive: -0.004,inactive: -0.031,inactive: -0.092,inactive: -0.046,inactive: -0.214,inactive: -0.05,inactive: -0.045,inactive: -0.083,inactive: 0.175,–
NCKAP1 isoform 2 (UniProt Q9Y2A7),inactive: -0.019,inactive: 0.096,inactive: 0.056,inactive: 0.02,inactive: 0.015,inactive: 0.02,inactive: 0.024,inactive: -0.003,inactive: -0.037,inactive: 0.027,inactive: 0,inactive: 0.002,inactive: -0.063,inactive: 0.07,inactive: -0.038,inactive: -0.047,inactive: -0.037,inactive: 0.01,inactive: -0.009,–
NAP1L1 (UniProt P55209),inactive: -0.021,inactive: 0.006,inactive: 0.036,inactive: 0.035,inactive: -0.048,inactive: 0.066,inactive: 0.026,inactive: -0.018,inactive: -0.02,inactive: 0.07,inactive: 0.04,inactive: -0.041,inactive: -0.012,inactive: -0.003,inactive: 0.021,inactive: 0.017,inactive: 0.021,inactive: -0.029,inactive: 0.004,–
"NA, A0A096LPI6",inactive: -0.009,inactive: -0.009,inactive: 0.047,inactive: 0.02,inactive: -0.051,inactive: 0.04,inactive: 0.023,inactive: -0.004,inactive: 0.008,inactive: 0.035,inactive: 0.065,inactive: 0.022,inactive: 0.046,inactive: -0.057,inactive: 0.008,inactive: 0.058,inactive: -0.016,inactive: -0.043,inactive: 0.004,–
NBN (UniProt O60934),inactive: 0.064,inactive: 0.087,inactive: 0.06,inactive: 0.033,inactive: 0.005,inactive: 0.028,inactive: 0.012,inactive: 0.002,inactive: -0.029,inactive: 0.037,inactive: -0.009,inactive: -0.008,inactive: -0.147,inactive: -0.028,inactive: -0.062,inactive: -0.025,inactive: 0.007,inactive: 0.009,inactive: -0.02,–
NDST1 (UniProt P52848),inactive: 0.109,inactive: 0.123,inactive: -0.013,inactive: -0.01,inactive: -0.025,inactive: -0.069,–,inactive: -0.016,inactive: -0.043,inactive: 0.004,inactive: 0.08,inactive: 0.045,inactive: -0.038,–,inactive: 0.043,inactive: -0.009,–,inactive: -0.041,inactive: 0.083,inactive: -0.095
NAA11 (UniProt Q9BSU3),inactive: -0.023,inactive: -0.012,inactive: -0.033,inactive: 0.06,inactive: 0.158,inactive: -0.207,inactive: -0.023,inactive: -0.032,inactive: -0.108,inactive: 0.167,inactive: 0.035,inactive: 0.049,inactive: -0.102,inactive: -0.024,inactive: -0.042,inactive: -0.075,inactive: 0.072,inactive: -0.131,inactive: 0,–
NA (UniProt B2RBV5),–,–,inactive: -0.068,–,–,inactive: -0.015,–,–,–,–,–,inactive: 0.069,–,–,inactive: -0.037,–,–,–,–,–
NDUFV1 (UniProt E9PJL9),–,inactive: -0.257,–,–,inactive: 0.009,inactive: 0.174,–,inactive: -0.088,inactive: 0.045,inactive: -0.192,inactive: -0.104,inactive: -0.252,inactive: 0.075,–,–,–,–,inactive: 0.016,inactive: 0.07,inactive: 0.042

# In a second layout: entries from further up
Target	log2 fold change (erlotinib)	log2 fold change [1]	log2 fold change [2]	log2 fold change [3]	log2 fold change [4]	log2 fold change [5]	log2 fold change [6]	log2 fold change [7]	log2 fold change [8]	log2 fold change [9]	log2 fold change (IRAK-1-4 Inhibitor I)	log2 fold change (ibrutinib)	log2 fold change [10]	log2 fold change (ralimetinib)	log2 fold change [11]	log2 fold change [12]	log2 fold change [13]	log2 fold change (pinometostat)	log2 fold change [14]	log2 fold change [15]
NECTIN2 isoform 2 (UniProt Q92692)	inactive: -0.151	inactive: 0.006	inactive: -0.386	inactive: 0.117	inactive: 0.168	inactive: -0.345	inactive: -0.029	inactive: -0.034	–	–	inactive: -0.018	inactive: 0.047	inactive: 0.03	inactive: 0.081	inactive: 0.1	inactive: 0.059	inactive: 0.008	inactive: -0.008	–	–
NCAPH (UniProt Q15003)	inactive: 0.201	inactive: 0.09	inactive: 0.008	inactive: -0.059	inactive: 0.024	inactive: 0.022	inactive: -0.009	inactive: 0.02	inactive: -0.004	inactive: -0.096	inactive: -0.124	inactive: -0.045	inactive: 0.097	inactive: 0.007	inactive: -0.094	inactive: -0.023	inactive: 0.02	inactive: 0.08	inactive: -0.006	–
NDUFV1 (UniProt E9PJL9)	–	inactive: -0.257	–	–	inactive: 0.009	inactive: 0.174	–	inactive: -0.088	inactive: 0.045	inactive: -0.192	inactive: -0.104	inactive: -0.252	inactive: 0.075	–	–	–	–	inactive: 0.016	inactive: 0.07	inactive: 0.042
